Experimental data as given in publication PMC11014671, “Small molecules that disrupt RAD54-BLM interaction hamper tumor proliferation in colon cancer chemoresistance models” (The Journal of Clinical Investigation, 2024).

How the values were obtained:
[1] = target: T1, RAD54 (endogenous, human cells) (human (endogenous in HCT116, CCD 841 CoN, HEK293T)) (UniProt Q92698); assay: co-IP; lysates of HCT116 IC60 CPT^R cells (beside parental HCT116); immunoprecipitation with anti-RAD54 antibodies, immunoprecipitates probed with anti-BLM antibody
T1 sequence: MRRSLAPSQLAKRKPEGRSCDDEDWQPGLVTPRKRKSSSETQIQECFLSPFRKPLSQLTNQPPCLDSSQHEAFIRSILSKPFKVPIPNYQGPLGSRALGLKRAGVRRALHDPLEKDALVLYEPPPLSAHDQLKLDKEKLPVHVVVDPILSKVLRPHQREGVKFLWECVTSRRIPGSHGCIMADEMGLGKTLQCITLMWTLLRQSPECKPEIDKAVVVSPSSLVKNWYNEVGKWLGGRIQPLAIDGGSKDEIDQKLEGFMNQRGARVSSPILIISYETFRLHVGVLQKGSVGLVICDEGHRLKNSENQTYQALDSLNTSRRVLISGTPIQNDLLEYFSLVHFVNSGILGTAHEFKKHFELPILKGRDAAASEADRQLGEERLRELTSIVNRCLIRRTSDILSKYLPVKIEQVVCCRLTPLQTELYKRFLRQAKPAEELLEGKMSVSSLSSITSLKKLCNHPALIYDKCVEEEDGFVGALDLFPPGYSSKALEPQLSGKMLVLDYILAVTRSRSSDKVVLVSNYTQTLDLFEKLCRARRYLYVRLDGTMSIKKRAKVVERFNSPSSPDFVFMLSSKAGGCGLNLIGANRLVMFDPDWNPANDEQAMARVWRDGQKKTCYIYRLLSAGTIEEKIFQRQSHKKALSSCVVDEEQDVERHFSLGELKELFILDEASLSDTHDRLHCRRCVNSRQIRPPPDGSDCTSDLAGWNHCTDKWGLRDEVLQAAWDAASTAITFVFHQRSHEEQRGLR

[2] = target: T1, RAD54 (endogenous, human cells) (human (endogenous in HCT116, CCD 841 CoN, HEK293T)); assay: co-IP; lysates of HCT116 (human) or CT26 (murine) cells immunoprecipitated with anti-RAD54 antibodies, immunoprecipitates probed with anti-BLM antibodies; anti-IgG as control
[3] = target: T1, RAD54 (endogenous, human cells) (human (endogenous in HCT116, CCD 841 CoN, HEK293T)); assay: proximity ligation; Duolink In Situ Red kit with antibodies against BLM and RAD54 on HCT116 and CCD 841 CoN cells (hypotonic lysis buffer, fixed with ice-cold ethanol); PLA foci per nucleus counted by confocal microscopy
His RAD54 (1-747) (WT) = target: T2, His RAD54 (1-747) (WT) (UniProt Q92698); assay: pull-down; His-RAD54 bound (Ni-NTA resin), incubated with soluble GST BLM wildtype or GST BLM (Δ181-212); bound protein detected by immunoblot; both purified
T2 sequence: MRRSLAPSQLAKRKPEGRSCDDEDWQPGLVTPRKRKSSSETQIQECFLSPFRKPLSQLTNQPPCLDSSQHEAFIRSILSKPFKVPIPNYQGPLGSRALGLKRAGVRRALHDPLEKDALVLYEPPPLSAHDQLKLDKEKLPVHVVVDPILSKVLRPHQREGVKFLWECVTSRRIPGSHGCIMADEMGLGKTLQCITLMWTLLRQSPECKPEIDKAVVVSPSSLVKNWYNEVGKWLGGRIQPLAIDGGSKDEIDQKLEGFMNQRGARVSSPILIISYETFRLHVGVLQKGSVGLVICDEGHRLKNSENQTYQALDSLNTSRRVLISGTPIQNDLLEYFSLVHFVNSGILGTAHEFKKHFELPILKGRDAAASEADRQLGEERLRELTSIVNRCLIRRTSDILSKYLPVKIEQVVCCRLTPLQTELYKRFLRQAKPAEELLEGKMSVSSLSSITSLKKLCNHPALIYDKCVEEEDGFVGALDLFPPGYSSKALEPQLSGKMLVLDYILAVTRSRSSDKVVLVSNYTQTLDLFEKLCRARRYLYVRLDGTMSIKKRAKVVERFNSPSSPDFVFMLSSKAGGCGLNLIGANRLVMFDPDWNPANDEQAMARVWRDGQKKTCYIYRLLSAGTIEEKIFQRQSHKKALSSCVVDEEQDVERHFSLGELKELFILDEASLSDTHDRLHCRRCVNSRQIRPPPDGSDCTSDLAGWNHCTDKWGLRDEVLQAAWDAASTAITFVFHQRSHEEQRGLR

[4] = target: BLM helicase (endogenous, human cells) (human (endogenous in HCT116)); assay: proximity ligation; endogenous BLM and RAD54 in CCD 841 CoN (normal colon epithelial) and HCT116 cells
GFP BLM (aa Δ181–212) = assay: co-IP; lysates of HCT116 BLM-/- cells transfected with tagged BLM constructs; immunoprecipitation of the tagged BLM (anti-GFP antibodies), probed for RAD54
GFP BLM WT = assay: as above
[5] = target: BLM (endogenous, human cells) (human (endogenous in HCT116, CCD 841 CoN, HEK293T)); assay: co-IP; lysates of HEK293T cells left untreated or treated with 100nM C3, C7, C17 for 72 hours; immunoprecipitation with anti-BLM antibody, westerns with anti-BLM and anti-RAD54 antibodies

BLM (endogenous, human cells)
binding [1]: binds | binding [2]: binds | binding [3]: binds

GST BLM (1-1417) (WT) (human)
binding (His RAD54 (1-747) (WT)): binds

B1: RAD54 (endogenous, human cells) (protein, UniProt Q92698 1-747)
chain: MRRSLAPSQLAKRKPEGRSCDDEDWQPGLVTPRKRKSSSETQIQECFLSPFRKPLSQLTNQPPCLDSSQHEAFIRSILSKPFKVPIPNYQGPLGSRALGLKRAGVRRALHDPLEKDALVLYEPPPLSAHDQLKLDKEKLPVHVVVDPILSKVLRPHQREGVKFLWECVTSRRIPGSHGCIMADEMGLGKTLQCITLMWTLLRQSPECKPEIDKAVVVSPSSLVKNWYNEVGKWLGGRIQPLAIDGGSKDEIDQKLEGFMNQRGARVSSPILIISYETFRLHVGVLQKGSVGLVICDEGHRLKNSENQTYQALDSLNTSRRVLISGTPIQNDLLEYFSLVHFVNSGILGTAHEFKKHFELPILKGRDAAASEADRQLGEERLRELTSIVNRCLIRRTSDILSKYLPVKIEQVVCCRLTPLQTELYKRFLRQAKPAEELLEGKMSVSSLSSITSLKKLCNHPALIYDKCVEEEDGFVGALDLFPPGYSSKALEPQLSGKMLVLDYILAVTRSRSSDKVVLVSNYTQTLDLFEKLCRARRYLYVRLDGTMSIKKRAKVVERFNSPSSPDFVFMLSSKAGGCGLNLIGANRLVMFDPDWNPANDEQAMARVWRDGQKKTCYIYRLLSAGTIEEKIFQRQSHKKALSSCVVDEEQDVERHFSLGELKELFILDEASLSDTHDRLHCRRCVNSRQIRPPPDGSDCTSDLAGWNHCTDKWGLRDEVLQAAWDAASTAITFVFHQRSHEEQRGLR
binding [4]: binds | binding (GFP BLM (aa Δ181–212)): no binding | binding (GFP BLM WT): binds | binding [5]: binds

These are yes or no findings as the source states them, for the method shown. For some assays here: A result given as binding can be weak or reduced; the word gives no strength. For some assays here: Tags and fused reporters may be left off the sequences shown. For some assays here: In cells and extracts the contact can be indirect.
